For some of these results: At least one peptide structure holds a part that was inferred or is arguable (an end, a ring closure or a residue). For at least one compound, name, drawing or mass did not settle the structure. *1 amine or outer side, *2 acyl side, *3 side chain or, on linkers, in order; H or OH if unused. Where a SMILES comes first, the peptide text is derived from it. Bridges are numbered along the chain shown (N, C = ends). [ ]: non-standard residue; d: D form. The star is where a group is joined. GABA(3R-Bn) = O=C(C[C@H](CN[*:1])Cc1ccccc1)[*:2]; X3 = CC(C)c1cccc([C@@H](CN)CC(=O)*)c1; X1 = NC[C@@H](CC(=O)*)c1cccc(Cl)c1; Dab = NCC[C@H](N)C(=O)O; Abu = CC[C@H](N)C(=O)O; Dap = NC[C@H](N)C(=O)O
Tests used:
[1] = tested on: E. coli, K. pneumoniae, P. aeruginosa, A. baumannii strains; test: Synergy with rifampicin across the MIC panel; format: cell-based; details: also against strains with reduced susceptibility to polymyxins
Experimental: MIC values (μg/mL) were determined by broth microdilution under CLSI conditions.

E. coli ATCC 25922 = test: Neutropenic murine thigh model; format: in vivo; details: CD-1 mice thigh, counts at 9 h, PMB of same experiment in parentheses
[2] = IV 0.5 mg/kg at 1, 3.5, 6 h post-infection
[3] = IV 3 mg/kg at 1, 3.5, 6 h post-infection
[4] = IV […] at 1, 3.5, 6 h post-infection

Structure (SMILES)	Synergy with rifampicin (in words) [1]	Log drop in cfu Compared to Vehicle Control (E. coli ATCC 25922; [2])	Log drop in cfu Compared to Vehicle Control (E. coli ATCC 25922; [3])	Log drop in cfu Compared to Vehicle Control (E. coli ATCC 25922; [4])
CC(C)C[C@@H]1NC(=O)[C@@H](Cc2ccccc2)NC(=O)[C@H](CCN)NC(=O)[C@@H](NC(=O)[C@H](CN)NC(=O)[C@@H](NC(=O)C[C@H](CN)c2cccc(Cl)c2)[C@@H](C)O)CCNC(=O)[C@H]([C@@H](C)O)NC(=O)[C@H](CCN)NC(=O)[C@H](CCN)NC1=O [Example 5, (S)-4-amino-3-(3- chlorophenyl)butanoyl- Thr-Dap-Cyclo[Dab- Dab-DPhe-Leu-Dab- Dab-Thr]] (X1-T[Dap][Dab][Dab][dF]L[Dab][Dab]T; lactam 3-C)	strong synergy with rifampicin	–	–	–
CC(C)C[C@@H]1NC(=O)[C@@H](Cc2ccccc2)NC(=O)[C@H](CCN)NC(=O)[C@@H](NC(=O)[C@H](CN)NC(=O)[C@@H](NC(=O)C[C@H](CN)Cc2ccccc2)[C@@H](C)O)CCNC(=O)[C@H]([C@@H](C)O)NC(=O)[C@H](CCN)NC(=O)[C@H](CCN)NC1=O [Example 9, (R)-4-amino-3- benzylbutanoyl-Thr- Dap-Cyclo[Dab-Dab- DPhe-Leu-Dab-Dab- Thr). Isomer 1] ({GABA(3R-Bn)}-T[Dap][Dab][Dab][dF]L[Dab][Dab]T; lactam 3-C)	–	0.5	3.7	0.1
CC[C@@H]1NC(=O)[C@@H](Cc2ccccc2)NC(=O)[C@H](CCN)NC(=O)[C@@H](NC(=O)[C@H](CN)NC(=O)[C@@H](NC(=O)C[C@H](CN)c2cccc(C(C)C)c2)[C@@H](C)O)CCNC(=O)[C@H]([C@@H](C)O)NC(=O)[C@H](CCN)NC(=O)[C@H](CCN)NC1=O [Example 17] (X3-T[Dap][Dab][Dab][dF][Abu][Dab][Dab]T; lactam 3-C)	–	1.3	3.7 (3.7)	0
